These results are taken from paper PMC7045605.

No constants are given. Whether binding was seen depends on the method and setting. Binding can be weak; no strength is given. Tags and fused reporters may be left off the sequences shown.

The target of the experiment is GST-UL36 recombinant protein (Dermacentor silvarum). Briefly: pull-down; Pierce GST Protein Interaction Pull-Down Kit; GST-UL36 or GST tag immobilised on glutathione agarose spin column, His-VirB10 captured, eluted with glutathione, western blot with anti-His tag; both purified. For orientation: A western blot detects proteins with antibodies after separation by electrophoresis.

B1: His-VirB10 recombinant protein (protein, UniProt A0A2Z2LGU5 1-441)
chain: MSDETKDNNYGDGVEESVNVVGVHKSKKLFVVLVVCAITGMAYYAFFRSSGTTEKSEEPQPVIEKQDVDKLLKESEAPAQETAPRILTPPPKLPDLPPLVMPTAPELPMLTRITKKRKEEPVVEETKEILPPAADSFFEPELQRRSMEDDGPPQHIPMPYRPGGGGIPEPMPSFLGYDREKRGTPMIVLGGAGDSGAGEDSGGQGADSRFRTWSTLDGTSSPSVKATRVGDPGYVILQGHMIDAVLETAINSDIPGVLRAVVSRDVYAEAGNMVMIPKGSRLIGSYFFDASGNNTRVTVSWSRVILPHGIDIQINSAGTDELGRNGTSGVIDTKMGNVLTSTILLAGVSMGTAFVTSKIPALQSEIKDTTEEKGEKKKEEKSSTLPVKIVSDAVKDFSESMKSLIKKYADTTKPTIYVDQGTVMKVFVNQDIVFPREAVRR
Turning to B1, the binding entry is “binds”.
